For 25 targets, log2 fold change results are on record in the supplement of paper PMC10849652.

By UniProt entry, the sequences of proteins in these tests, tags left out. Where a name states a change or a piece, a line headed by the entry shows the natural chain unless it says otherwise.
UniProt O43240: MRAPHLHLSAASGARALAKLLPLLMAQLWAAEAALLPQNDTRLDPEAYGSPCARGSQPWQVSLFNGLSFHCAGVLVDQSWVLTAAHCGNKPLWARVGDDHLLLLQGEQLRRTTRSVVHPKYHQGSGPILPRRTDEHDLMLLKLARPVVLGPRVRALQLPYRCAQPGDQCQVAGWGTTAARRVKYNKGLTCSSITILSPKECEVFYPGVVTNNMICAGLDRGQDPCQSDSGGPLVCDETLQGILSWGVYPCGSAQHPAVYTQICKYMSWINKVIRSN
UniProt Q9ULI4: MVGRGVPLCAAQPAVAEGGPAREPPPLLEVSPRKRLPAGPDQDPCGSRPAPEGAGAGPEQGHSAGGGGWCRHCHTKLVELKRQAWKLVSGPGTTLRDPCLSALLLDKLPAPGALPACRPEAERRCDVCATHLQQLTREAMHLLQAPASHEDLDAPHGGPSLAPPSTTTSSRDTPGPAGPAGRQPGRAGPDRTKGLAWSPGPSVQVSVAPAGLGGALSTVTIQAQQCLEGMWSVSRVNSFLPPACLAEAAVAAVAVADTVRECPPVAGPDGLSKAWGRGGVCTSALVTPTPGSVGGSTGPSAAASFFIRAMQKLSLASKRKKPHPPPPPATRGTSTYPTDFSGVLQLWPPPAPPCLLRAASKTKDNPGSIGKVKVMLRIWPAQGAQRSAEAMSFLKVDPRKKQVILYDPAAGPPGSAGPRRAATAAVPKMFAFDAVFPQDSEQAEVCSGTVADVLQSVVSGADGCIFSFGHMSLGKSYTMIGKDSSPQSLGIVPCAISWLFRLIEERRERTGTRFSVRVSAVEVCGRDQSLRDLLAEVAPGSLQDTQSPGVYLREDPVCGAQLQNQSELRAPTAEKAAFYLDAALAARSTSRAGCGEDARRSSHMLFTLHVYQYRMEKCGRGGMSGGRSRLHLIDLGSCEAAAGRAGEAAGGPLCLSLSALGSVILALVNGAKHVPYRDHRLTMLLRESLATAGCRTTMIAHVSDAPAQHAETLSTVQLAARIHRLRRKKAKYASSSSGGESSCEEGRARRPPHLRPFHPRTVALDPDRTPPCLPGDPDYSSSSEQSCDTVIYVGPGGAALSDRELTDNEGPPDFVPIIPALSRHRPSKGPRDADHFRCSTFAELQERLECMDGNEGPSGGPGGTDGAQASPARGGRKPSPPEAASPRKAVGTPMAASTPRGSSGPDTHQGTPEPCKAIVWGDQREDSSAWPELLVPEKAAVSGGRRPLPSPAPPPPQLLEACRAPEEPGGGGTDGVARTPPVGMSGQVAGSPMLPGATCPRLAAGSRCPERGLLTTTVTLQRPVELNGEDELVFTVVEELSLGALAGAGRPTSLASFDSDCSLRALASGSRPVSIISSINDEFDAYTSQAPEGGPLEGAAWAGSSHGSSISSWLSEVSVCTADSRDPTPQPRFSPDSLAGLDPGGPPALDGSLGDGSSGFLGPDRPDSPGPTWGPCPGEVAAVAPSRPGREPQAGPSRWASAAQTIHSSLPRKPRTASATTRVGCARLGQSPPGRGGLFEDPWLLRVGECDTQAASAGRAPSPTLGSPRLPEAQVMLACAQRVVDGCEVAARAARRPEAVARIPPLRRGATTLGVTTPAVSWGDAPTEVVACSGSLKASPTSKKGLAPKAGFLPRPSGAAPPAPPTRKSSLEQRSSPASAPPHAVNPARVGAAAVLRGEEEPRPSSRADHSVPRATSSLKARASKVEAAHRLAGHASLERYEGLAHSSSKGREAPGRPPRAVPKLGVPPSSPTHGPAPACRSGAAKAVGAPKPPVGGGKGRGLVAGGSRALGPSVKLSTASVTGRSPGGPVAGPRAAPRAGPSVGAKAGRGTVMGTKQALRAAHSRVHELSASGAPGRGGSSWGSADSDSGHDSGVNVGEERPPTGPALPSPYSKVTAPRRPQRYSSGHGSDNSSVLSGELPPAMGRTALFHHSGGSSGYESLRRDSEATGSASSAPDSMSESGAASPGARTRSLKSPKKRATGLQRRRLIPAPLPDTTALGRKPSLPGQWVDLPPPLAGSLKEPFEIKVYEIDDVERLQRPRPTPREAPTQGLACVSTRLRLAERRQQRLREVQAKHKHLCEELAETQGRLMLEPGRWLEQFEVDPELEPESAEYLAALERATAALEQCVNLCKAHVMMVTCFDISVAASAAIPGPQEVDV
UniProt Q9H910: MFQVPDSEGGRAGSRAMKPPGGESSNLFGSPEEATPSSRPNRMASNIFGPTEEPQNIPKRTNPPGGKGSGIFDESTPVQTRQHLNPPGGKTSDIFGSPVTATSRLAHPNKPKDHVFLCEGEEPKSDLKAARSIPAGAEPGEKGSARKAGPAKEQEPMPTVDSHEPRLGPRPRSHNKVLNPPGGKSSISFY
UniProt Q8WYB5, whole entry, looked up: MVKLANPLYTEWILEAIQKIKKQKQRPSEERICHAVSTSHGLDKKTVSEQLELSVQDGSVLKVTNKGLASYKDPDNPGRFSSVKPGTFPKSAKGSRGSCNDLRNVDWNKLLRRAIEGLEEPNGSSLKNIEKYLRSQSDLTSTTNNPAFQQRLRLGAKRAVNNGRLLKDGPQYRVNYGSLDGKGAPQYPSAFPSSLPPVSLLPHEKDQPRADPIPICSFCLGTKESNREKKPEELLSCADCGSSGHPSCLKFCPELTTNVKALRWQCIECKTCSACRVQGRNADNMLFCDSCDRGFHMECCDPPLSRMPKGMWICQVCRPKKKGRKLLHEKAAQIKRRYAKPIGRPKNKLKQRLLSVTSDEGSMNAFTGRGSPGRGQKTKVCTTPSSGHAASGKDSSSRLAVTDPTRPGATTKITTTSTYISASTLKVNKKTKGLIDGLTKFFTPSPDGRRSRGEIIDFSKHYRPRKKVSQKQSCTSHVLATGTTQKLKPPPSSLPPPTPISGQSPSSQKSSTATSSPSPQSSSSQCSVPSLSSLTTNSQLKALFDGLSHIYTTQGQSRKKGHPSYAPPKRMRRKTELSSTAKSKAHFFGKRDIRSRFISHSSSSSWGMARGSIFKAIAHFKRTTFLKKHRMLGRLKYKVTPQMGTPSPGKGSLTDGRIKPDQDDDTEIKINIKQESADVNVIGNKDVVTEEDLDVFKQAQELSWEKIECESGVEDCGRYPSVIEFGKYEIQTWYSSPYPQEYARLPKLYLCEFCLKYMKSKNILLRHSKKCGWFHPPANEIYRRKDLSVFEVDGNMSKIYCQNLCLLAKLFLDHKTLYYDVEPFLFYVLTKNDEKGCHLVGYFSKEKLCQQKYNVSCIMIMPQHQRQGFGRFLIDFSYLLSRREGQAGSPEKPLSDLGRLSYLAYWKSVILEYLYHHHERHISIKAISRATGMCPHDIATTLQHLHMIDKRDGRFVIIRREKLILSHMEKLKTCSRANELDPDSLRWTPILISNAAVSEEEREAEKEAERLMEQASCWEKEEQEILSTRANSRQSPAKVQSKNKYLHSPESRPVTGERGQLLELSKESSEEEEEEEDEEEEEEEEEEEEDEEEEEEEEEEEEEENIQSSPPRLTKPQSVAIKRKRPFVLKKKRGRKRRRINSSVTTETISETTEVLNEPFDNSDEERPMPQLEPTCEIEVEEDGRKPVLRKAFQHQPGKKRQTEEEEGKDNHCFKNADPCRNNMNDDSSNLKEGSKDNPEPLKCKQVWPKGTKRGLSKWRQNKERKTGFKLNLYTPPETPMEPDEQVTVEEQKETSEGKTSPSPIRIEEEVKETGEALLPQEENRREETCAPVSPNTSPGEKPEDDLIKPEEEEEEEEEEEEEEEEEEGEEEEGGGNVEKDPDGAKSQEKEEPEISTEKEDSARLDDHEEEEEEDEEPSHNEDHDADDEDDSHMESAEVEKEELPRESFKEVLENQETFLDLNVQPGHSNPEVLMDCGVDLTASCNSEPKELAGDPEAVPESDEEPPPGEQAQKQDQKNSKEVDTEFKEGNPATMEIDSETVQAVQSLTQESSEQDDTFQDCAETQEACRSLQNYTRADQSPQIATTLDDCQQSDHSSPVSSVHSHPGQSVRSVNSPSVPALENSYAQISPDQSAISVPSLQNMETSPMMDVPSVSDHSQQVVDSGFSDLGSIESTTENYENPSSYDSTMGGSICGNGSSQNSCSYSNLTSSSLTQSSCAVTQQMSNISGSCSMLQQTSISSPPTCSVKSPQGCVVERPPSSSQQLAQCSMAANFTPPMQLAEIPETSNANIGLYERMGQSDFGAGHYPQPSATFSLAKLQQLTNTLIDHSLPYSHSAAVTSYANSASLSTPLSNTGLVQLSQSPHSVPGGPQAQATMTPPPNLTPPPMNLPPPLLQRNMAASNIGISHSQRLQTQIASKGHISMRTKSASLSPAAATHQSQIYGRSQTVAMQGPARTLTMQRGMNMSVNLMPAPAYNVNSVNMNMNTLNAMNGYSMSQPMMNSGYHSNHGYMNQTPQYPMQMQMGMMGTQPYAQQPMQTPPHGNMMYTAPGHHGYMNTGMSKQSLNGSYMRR
UniProt O60333: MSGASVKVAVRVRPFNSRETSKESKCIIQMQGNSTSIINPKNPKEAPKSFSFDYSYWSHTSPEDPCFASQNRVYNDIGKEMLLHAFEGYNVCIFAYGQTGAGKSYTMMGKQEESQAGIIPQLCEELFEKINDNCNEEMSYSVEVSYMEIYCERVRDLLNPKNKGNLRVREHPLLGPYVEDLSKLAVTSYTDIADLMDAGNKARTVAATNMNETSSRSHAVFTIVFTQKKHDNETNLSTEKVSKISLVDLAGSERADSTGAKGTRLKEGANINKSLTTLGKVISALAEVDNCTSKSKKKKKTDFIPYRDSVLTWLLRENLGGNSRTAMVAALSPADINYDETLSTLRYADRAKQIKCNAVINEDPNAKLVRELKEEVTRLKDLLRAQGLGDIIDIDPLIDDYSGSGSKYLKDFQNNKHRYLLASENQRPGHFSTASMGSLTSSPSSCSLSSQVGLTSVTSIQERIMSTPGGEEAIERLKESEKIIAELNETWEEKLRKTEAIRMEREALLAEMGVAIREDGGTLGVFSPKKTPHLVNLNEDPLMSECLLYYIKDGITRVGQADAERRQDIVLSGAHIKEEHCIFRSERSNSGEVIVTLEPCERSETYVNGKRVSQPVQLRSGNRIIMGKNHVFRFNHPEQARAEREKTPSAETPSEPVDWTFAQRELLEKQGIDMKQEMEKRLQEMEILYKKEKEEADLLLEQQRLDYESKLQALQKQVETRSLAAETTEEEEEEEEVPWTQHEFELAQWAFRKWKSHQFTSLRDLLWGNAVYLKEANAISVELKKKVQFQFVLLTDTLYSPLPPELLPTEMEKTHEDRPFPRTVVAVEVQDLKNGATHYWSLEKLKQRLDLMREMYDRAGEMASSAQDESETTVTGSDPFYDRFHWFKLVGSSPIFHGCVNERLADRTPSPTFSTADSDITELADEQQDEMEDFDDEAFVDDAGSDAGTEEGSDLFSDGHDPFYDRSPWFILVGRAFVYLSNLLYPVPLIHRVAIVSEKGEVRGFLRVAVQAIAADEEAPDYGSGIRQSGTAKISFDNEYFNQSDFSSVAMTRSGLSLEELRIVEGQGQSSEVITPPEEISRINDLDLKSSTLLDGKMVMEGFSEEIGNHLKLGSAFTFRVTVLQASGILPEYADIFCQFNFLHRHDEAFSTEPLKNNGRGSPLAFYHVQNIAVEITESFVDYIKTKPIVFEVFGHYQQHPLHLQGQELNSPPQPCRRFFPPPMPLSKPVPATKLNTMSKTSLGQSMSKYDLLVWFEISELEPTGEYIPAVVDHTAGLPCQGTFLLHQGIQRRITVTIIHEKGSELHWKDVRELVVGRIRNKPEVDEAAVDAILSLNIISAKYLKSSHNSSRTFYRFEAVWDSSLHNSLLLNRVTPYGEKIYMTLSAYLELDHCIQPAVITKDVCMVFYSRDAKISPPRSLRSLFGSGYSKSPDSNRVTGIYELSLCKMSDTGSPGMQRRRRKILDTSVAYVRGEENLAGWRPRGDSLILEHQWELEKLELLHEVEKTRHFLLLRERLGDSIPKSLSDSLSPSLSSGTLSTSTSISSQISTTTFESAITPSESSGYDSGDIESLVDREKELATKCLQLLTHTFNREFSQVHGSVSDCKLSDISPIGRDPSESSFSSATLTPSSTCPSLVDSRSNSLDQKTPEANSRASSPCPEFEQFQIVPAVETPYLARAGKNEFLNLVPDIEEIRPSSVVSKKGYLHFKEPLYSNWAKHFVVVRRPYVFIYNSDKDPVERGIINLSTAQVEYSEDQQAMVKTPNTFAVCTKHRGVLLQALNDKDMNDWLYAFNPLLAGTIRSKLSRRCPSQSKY
UniProt Q719H9: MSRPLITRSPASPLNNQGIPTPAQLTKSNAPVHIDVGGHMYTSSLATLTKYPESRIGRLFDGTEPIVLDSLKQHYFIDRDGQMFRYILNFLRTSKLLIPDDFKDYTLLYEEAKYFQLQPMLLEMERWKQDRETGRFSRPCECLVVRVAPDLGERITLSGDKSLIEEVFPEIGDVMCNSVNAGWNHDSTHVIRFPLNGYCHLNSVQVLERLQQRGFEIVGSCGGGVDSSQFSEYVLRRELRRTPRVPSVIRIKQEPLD
UniProt Q15053: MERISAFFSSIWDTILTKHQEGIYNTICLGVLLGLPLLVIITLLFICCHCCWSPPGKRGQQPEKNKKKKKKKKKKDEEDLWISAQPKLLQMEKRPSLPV

This is one part of the list.

Compound in the first assay: COC(=O)N[C@@H](C)CNc1nccc(-c2cn(C(C)C)nc2-c2cc(Cl)cc(NS(C)(=O)=O)c2F)n1 [encorafenib]
Description: log2 fold change, soluble protein after heating vs DMSO (PISA); higher = thermal stabilisation; K562 cells, 10 uM, 30 min; active = over 0.2 and 3.5 SD of the protein, either way, in both replicates (recomputed). An outline of the steps: (§1)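 Soluble protein was defined as the supernatant after 21,000xg for 90 min. It came from K562 cells at 2×10^6 cells/mL given 10 μM compound for 30 min, heated in aliquots for 3 min across 48°C-58°C, pooled, and extracted in PBS with 0.5% NP-40 at 4°C, and was quantified by TMTpro 16plex LC-MS/MS with equalised channel sums. Thermal stability against control samples, from duplicates, is reported as log2 fold change.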
Take KIAA1109 (UniProt Q2LD37): the log2 fold change was inactive: 0.003. Take KLK10 (UniProt O43240): the log2 fold change was inactive: -0.058.

With KIFAP3 (UniProt Q92845), the log2 fold change is inactive: 0.03. Regarding KIF16B isoform 2 (UniProt Q96L93), the log2 fold change is inactive: -0.008. Consider JCHAIN (UniProt P01591), for which the log2 fold change is inactive: -0.699.

For the target JUN (UniProt P05412), the log2 fold change is inactive: 0.096.

As for KIF26A (UniProt Q9ULI4), the log2 fold change is inactive: -0.064. With KALRN (UniProt O60229), the log2 fold change is inactive: -0.102. As for JPT2 isoform 2 (UniProt Q9H910), the log2 fold change was inactive: -0.082. Turning to KLHL36 (UniProt Q8N4N3), the log2 fold change is inactive: 0.023. Consider KDM3A (UniProt Q9Y4C1), for which the log2 fold change is inactive: -0.124. Regarding KIFC3 isoform 6 (UniProt Q9BVG8), the log2 fold change is inactive: -0.17. As for KCMF1 (UniProt Q9P0J7), the log2 fold change is inactive: 0.055.

Take JUNB (UniProt P17275): the log2 fold change was inactive: 0.107. Consider KIZ (UniProt Q2M2Z5), for which the log2 fold change is inactive: -0.038. Turning to KAT6B (UniProt Q8WYB5), the log2 fold change is inactive: 0.058. For the target KAT7 (UniProt O95251), the log2 fold change was inactive: -0.178. In the case of ITSN2 (UniProt Q9NZM3), the log2 fold change is inactive: 0.194. As for KIF1B isoform 3 (UniProt O60333), the log2 fold change was inactive: -0.222. Consider KRR1 (UniProt Q13601), for which the log2 fold change is inactive: -0.044.

Compound in the next assay: COC(=O)[C@H](CCSC)NC(=O)C1=C(C=C(C=C1)NC[C@H](CS)N)C2=CC=CC=C2
The description is as above. The method, boiled down: as §1
Consider KIAA0513 (UniProt O60268), for which the log2 fold change was inactive: -0.017. In the case of JPT2 isoform 2 (UniProt Q9H910), the log2 fold change was inactive: -0.055. With KIFC3 isoform 6 (UniProt Q9BVG8), the log2 fold change was inactive: 0.099.

Take KCMF1 (UniProt Q9P0J7): the log2 fold change is inactive: -0.029. For KCTD1 (UniProt Q719H9), the log2 fold change is inactive: -0.042. On the same count and under the same terms, the result for JUNB (UniProt P17275) reads inactive: 0.046; that for KDM6A (UniProt O15550), inactive: -0.07.

For KLHL20 (UniProt Q9Y2M5), the log2 fold change was inactive: -0.095. KAT6B (UniProt Q8WYB5): the log2 fold change is inactive: 0.009.

As for KAT7 (UniProt O95251), the log2 fold change is inactive: -0.099. Still for that read-out and setting: the result for KIAA0040 (UniProt Q15053) reads inactive: 0.022; that for KIF1B isoform 3 (UniProt O60333), inactive: 0.17.
